What follows is the remainder of the data, with few or none of the targets with a hit. This is a noisy data set. The list shows a part of the results, in another mix than the full data.
Compound: COC(=O)/C=C/c1ccccc1 [methyl cinnamate]
Test: log2 ratio of iodoacetamide-alkyne labeling of the cysteine site, DMSO over compound (competition); higher = stronger covalent engagement of the cysteine by the compound, active = 1 or more
Details: 500 µM; treatment time 1 h; system: HEK293T cell lysate
In short: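 HEK293T lysate (2 mg/mL) was treated with DMSO or electrophile (500 µM, 1 h, ambient temperature), then iodoacetamide alkyne (1 h), clicked to sCIP-TMT reagents, pooled, trypsin-digested overnight at 37 °C, streptavidin-enriched and acid-eluted. Peptides were run on Orbitrap Eclipse LC-MS/MS with FAIMS and quantified in FragPipe. The log2 competition ratio per cysteine is mean control-channel over mean compound-channel reporter intensity. Duplicate channels and three replicates were used, and cysteines quantified in only one replicate were excluded.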

Amino acid sequences for entries named in this document (tags omitted). A change or cut given only in a name is not applied to a line headed by its entry.
UniProt Q14103: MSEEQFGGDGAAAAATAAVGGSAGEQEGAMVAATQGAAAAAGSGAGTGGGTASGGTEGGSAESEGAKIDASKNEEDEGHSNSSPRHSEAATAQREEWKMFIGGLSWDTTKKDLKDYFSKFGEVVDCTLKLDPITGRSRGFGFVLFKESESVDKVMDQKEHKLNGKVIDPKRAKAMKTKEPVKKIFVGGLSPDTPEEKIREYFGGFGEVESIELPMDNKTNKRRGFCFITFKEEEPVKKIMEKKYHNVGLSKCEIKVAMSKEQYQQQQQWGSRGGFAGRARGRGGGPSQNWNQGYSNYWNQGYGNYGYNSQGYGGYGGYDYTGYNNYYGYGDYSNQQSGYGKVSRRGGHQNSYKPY
UniProt Q13642: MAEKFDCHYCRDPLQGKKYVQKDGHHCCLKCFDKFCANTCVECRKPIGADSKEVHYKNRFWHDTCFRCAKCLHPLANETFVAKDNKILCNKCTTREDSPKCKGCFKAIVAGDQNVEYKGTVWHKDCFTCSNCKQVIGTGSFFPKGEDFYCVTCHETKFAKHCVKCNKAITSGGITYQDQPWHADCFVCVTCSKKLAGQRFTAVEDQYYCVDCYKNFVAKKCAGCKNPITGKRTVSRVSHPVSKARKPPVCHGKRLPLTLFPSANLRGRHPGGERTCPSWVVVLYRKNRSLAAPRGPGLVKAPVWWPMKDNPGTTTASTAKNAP
UniProt Q14CS0: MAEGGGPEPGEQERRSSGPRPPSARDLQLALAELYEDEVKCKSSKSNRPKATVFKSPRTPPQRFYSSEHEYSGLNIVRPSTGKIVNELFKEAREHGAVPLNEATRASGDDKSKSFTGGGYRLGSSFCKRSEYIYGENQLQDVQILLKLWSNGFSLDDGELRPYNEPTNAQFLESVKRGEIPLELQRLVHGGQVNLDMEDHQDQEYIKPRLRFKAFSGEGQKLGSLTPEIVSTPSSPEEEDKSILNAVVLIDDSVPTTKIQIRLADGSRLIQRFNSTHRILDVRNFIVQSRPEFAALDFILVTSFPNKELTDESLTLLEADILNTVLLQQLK
UniProt Q14258, whole entry, looked up: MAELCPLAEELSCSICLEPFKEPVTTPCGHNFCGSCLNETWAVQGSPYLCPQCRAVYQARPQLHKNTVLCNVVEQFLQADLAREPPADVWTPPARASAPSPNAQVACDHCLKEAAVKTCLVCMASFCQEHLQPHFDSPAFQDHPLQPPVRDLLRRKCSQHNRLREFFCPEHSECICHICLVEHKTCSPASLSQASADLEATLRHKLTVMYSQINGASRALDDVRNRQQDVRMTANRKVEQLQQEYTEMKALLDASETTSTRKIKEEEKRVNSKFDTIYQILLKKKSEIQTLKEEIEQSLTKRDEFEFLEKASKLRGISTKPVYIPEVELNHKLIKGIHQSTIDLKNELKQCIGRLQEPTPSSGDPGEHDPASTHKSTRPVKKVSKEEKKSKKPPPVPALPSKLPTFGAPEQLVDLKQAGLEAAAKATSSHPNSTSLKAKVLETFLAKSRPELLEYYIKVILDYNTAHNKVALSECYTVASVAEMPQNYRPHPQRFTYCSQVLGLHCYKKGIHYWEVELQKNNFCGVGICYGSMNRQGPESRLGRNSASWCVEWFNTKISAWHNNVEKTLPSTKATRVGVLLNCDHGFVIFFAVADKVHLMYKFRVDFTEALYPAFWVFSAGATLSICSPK
UniProt Q14980: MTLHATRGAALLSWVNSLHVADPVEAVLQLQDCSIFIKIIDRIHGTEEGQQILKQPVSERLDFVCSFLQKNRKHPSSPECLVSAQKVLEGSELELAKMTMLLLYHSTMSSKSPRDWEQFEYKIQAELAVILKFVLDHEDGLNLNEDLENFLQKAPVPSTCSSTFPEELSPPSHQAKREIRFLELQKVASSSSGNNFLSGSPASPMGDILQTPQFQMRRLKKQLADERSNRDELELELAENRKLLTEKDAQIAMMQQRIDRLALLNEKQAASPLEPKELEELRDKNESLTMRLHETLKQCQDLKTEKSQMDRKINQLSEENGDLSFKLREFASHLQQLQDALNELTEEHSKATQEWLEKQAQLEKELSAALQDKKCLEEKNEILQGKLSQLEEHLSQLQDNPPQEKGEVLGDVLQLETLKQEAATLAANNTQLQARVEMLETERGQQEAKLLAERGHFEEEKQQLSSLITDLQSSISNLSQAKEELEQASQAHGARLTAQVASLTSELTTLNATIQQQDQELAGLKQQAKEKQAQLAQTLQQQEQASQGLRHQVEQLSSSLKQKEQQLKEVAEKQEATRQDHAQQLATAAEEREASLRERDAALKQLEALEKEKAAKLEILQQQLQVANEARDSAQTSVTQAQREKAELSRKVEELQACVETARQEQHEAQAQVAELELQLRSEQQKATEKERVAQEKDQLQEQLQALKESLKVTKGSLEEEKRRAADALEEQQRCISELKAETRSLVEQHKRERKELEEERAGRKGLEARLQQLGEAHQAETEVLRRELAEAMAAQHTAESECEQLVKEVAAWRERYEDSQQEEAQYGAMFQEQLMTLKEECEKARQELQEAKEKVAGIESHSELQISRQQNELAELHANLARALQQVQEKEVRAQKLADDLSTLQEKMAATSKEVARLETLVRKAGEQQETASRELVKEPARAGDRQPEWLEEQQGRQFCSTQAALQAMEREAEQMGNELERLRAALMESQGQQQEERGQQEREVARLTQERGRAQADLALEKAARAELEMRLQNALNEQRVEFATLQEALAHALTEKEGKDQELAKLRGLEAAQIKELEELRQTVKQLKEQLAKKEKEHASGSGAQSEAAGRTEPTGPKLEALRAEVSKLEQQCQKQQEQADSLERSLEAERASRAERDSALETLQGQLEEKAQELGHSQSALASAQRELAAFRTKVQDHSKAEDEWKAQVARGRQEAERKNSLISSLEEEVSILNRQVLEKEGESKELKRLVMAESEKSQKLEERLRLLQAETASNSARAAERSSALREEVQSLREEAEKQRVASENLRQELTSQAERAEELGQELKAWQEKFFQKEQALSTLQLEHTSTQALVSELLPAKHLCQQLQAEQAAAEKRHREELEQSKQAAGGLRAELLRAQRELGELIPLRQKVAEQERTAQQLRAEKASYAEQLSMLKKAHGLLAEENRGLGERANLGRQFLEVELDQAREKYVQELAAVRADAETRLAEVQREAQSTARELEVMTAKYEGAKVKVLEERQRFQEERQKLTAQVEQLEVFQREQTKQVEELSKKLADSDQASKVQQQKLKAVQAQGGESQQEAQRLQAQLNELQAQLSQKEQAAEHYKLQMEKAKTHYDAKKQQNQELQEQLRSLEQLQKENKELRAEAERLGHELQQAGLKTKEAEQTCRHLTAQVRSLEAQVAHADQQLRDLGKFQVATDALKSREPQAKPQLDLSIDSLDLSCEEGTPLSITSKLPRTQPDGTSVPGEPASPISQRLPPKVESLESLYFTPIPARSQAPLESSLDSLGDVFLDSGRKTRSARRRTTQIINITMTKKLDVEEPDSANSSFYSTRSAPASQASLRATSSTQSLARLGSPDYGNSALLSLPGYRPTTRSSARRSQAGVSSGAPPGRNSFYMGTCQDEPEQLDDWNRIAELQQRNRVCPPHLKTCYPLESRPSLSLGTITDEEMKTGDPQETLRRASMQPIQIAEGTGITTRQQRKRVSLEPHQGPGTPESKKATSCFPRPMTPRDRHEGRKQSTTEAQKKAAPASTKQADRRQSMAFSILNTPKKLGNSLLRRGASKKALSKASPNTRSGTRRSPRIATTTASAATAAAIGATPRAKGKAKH
UniProt Q14166: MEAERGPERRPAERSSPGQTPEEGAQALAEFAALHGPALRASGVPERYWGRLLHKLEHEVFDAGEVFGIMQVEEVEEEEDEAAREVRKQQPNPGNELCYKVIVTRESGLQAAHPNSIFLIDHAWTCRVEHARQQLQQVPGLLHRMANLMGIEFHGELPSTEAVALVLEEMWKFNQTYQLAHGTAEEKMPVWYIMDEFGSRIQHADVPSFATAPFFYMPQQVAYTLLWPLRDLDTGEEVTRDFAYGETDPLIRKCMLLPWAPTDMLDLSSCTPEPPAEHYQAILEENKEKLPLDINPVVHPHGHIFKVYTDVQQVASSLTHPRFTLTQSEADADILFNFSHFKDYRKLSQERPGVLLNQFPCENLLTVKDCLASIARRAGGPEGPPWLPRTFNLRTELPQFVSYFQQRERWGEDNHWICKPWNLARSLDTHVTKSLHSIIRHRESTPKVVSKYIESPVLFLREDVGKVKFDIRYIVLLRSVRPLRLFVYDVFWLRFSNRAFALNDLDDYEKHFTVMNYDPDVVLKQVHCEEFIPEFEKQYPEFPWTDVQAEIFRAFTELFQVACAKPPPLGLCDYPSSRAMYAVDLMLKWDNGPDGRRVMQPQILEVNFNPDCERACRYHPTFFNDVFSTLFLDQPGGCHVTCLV
UniProt Q13838, whole entry, looked up: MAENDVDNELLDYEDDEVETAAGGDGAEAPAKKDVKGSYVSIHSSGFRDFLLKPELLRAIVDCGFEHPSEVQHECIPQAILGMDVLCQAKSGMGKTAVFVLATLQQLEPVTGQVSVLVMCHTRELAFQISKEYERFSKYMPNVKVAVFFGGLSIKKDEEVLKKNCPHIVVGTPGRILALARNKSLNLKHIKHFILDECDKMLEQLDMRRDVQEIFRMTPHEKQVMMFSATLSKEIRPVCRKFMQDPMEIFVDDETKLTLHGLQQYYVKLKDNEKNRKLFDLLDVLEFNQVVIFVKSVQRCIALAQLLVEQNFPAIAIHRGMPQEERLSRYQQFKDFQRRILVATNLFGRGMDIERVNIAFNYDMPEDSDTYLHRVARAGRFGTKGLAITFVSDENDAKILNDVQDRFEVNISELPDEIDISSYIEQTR
UniProt Q15005: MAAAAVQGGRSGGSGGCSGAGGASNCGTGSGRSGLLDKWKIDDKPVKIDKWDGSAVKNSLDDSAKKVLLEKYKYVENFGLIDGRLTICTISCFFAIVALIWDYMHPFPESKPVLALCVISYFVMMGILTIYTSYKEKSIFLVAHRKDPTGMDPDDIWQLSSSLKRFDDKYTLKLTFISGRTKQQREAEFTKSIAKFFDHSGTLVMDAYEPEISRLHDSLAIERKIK
UniProt Q14318: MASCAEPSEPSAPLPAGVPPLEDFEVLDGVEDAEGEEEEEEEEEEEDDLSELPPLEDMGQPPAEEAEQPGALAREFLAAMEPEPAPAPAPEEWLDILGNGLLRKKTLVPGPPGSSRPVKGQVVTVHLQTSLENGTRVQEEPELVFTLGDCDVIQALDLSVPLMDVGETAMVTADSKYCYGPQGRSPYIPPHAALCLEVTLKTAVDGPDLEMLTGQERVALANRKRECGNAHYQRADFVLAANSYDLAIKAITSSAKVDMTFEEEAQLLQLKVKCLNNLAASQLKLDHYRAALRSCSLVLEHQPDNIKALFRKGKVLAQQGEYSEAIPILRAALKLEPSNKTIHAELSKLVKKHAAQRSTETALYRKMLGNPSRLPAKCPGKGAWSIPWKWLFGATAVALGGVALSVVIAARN
UniProt Q15020: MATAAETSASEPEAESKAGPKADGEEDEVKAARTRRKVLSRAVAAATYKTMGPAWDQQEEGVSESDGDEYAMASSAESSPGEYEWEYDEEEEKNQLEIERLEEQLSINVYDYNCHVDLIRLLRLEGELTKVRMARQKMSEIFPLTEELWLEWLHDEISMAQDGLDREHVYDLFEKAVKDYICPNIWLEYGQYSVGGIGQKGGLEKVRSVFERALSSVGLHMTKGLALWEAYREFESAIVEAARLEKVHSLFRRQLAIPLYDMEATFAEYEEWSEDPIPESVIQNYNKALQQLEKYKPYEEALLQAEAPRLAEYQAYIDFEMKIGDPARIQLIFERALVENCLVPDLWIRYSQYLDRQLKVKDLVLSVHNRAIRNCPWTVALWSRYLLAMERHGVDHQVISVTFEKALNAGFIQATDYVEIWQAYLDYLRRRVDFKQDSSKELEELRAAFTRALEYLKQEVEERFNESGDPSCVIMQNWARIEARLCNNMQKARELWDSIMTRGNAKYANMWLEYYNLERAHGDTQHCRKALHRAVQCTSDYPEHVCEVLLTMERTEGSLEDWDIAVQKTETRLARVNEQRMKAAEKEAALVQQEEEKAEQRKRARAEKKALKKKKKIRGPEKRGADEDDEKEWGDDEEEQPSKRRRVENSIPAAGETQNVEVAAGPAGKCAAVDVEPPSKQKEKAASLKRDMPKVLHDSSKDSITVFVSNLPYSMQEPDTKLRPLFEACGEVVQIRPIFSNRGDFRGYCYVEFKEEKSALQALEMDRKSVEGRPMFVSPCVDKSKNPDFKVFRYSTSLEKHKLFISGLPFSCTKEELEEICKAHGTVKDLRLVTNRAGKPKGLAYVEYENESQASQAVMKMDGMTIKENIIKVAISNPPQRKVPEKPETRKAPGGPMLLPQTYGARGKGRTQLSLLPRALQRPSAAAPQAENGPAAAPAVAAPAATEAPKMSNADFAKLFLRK

log2 ratio of iodoacetamide-alkyne labeling, inactive:
SPTAN1 C956 (UniProt Q13813) 0.111
HNRNPD C126 (UniProt Q14103) 0.176
FHL1 C71 (UniProt Q13642) 0.317
TRIP12 C332 (UniProt Q14669) 0.418
ATR C1343 (UniProt Q13535) 0.534
SMC1A C987 (UniProt Q14683) 0.224
STIM1 C49 (UniProt Q13586) 0.279
FHL1 C209 (UniProt Q13642) -0.0748
UBXN2B C41 (UniProt Q14CS0) 0.0924
EIF3A C404 (UniProt Q14152) 0.313
UBE4A C1002 (UniProt Q14139) 0.23
TRIM25 C186 (UniProt Q14258) 0.0491
PUM1 C1179 (UniProt Q14671) -0.24
DYNC1H1 C3089 (UniProt Q14204) 0.17
SCRIB C22 (UniProt Q14160) 0.227
NCAPD2 C439 (UniProt Q15021) -0.31
FHL1 C153 (UniProt Q13642) 0.196
NUMA1 C961 (UniProt Q14980) 0.204
HLTF C442 (UniProt Q14527) 0.0178
TTLL12 C642 (UniProt Q14166) -0.236
NUMA1 C375 (UniProt Q14980) 0.227
NUMA1 C1907 (UniProt Q14980) 0.197
PRPF4B C962 (UniProt Q13523) -0.087
FHL1 C31 (UniProt Q13642) 0.129
DDX39B C198 (UniProt Q13838) 0.196
TTLL12 C612 (UniProt Q14166) 0.193
RBM39 C303 (UniProt Q14498) 0.0917
SMC1A C1073 (UniProt Q14683) -0.00409
SPCS2 C17 (UniProt Q15005) 0.292
FKBP8 C295 (UniProt Q14318) -0.0199
SPTAN1 C1930 (UniProt Q13813) 0.185
CKAP5 C592 (UniProt Q14008) 0.173
DCTN1 C1252 (UniProt Q14203) 0.275
UniProt Q14197_C82 0.0622
DYNC1H1 C3147 (UniProt Q14204) 0.305
SART3 C537 (UniProt Q15020) -0.0793
DYNC1H1 C1977 (UniProt Q14204) 0.034

At a glance, some entries already given:
log2 ratio of iodoacetamide-alkyne labeling, inactive:
PRPF4B C962 (UniProt Q13523) -0.087
FHL1 C31 (UniProt Q13642) 0.129

Source: the supplement of paper PMC11006884
